Reference: the supplement of paper PMC11237882
The list shows a part of the results. Values are worked out from sequencing counts and are noisy.

Target: T1, Homer1 EVH1 domain
T1 chain: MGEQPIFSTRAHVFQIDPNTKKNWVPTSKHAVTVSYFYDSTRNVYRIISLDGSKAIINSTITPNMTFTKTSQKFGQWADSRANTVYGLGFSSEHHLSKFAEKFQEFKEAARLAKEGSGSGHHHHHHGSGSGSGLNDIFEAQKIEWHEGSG
Assay: enrichment score (AUC of log2 frequency ratio across FACS sorting rounds) (log2 AUC); higher = stronger enrichment for Homer1 EVH1 binding

**Q.** Which enrichment score does the source give for ILLTNLFKALTLPGSSENEYIMKAIMRSFSLLLEAI here?
**A.** 0.189

**Q.** PQFFIVYWLAPSLGILLMILMFSFFLPWLHNHHTIN was tested. Which enrichment score did it give?
**A.** 2.91

**Q.** For YIYRVIRTTGYLLFILHINACVYYWASNYEGIGTTR, which enrichment score is on record?
**A.** -0.0143

**Q.** With LITVMLAFIMYMTLRNATQQKDMVENPEPPSGVRCC as the binder, how does the enrichment score read?
**A.** 2.72

**Q.** Which enrichment score does the source give for PTTLHLHMIFLRGMLTLGCTLYIVWATLYRCALDIM here?
**A.** -3.25

**Q.** How did the enrichment score turn out when SQVLFERPGIWKDLKTMGSVSLSIFFITLLVLGRQN was run?
**A.** 1.47

**Q.** For MVSVNSSHCFYNDSFKYTLYGCMFSMVFVLGLISNC, which enrichment score is on record?
**A.** -0.302

**Q.** With LAIILTSLIDLINYIFFTGSLWSILLMIGILRRRYQ as the binder, how does the enrichment score read?
**A.** -3.4

**Q.** Which enrichment score does the source give for YPEIKSLMKPDPNLIWIIIMMVLTQLGAFYIVKDLD here?
**A.** 2.82

**Q.** Which enrichment score does the source give for GTAQQPRLFVGMILILIFAEVLGLYGLIVALILSTK here?
**A.** 1.42

**Q.** How did the enrichment score turn out when MRYSVPILILLYLCYKFWPGMMDELSELREFYDPDT was run?
**A.** 0.288

**Q.** YFCDVYPLLKLACSNIHMIGLLVIANSGLIALVTFL was tested. Which enrichment score did it give?
**A.** 2.84

**Q.** With NSNKLKGMAQSIFMAGILIGGLVLGDLSDRFGRRPI as the binder, how does the enrichment score read?
**A.** 3.96

**Q.** Which enrichment score does the source give for SKSLTWIHLLVIIGSILSYFLFAIVFGAMCVTCNPP here?
**A.** 0.421

**Q.** For LVIFLFPLFITVLSYGCILATILCMPTGKQKAFSTC, which enrichment score is on record?
**A.** 2.06

**Q.** For YYVSSTVAYAIGMILTFVVLVLMKKGQPALLYLVPW, which enrichment score is on record?
**A.** 0.157

**Q.** For LFLHQLHLGVIGSALANLISQYTLALLLFLYILGKK, which enrichment score is on record?
**A.** 2.57

**Q.** With APVHFSWVIGVMICCMLNIWGIILYLQLPWIAAQAG as the binder, how does the enrichment score read?
**A.** 3.52

**Q.** For MANINLKEITLIVGVVTACYWNSLFCGFVFDDVSAI, which enrichment score is on record?
**A.** -0.918

**Q.** Which enrichment score does the source give for EYLYCVLFILSGLLFYFLFVHYKFGWAQKISKPITM here?
**A.** 1.1

**Q.** For NMDEKSQRYLADMFTTCVDIRWRYMLLIFSLAFLAS, which enrichment score is on record?
**A.** 2.88

**Q.** With MARSLLLPLQILLLSLALETAGEEAQGDKIIDGAPC as the binder, how does the enrichment score read?
**A.** 2.97

**Q.** Which enrichment score does the source give for EGFQSWMWRGLTFLLPFLFFGHFWQLFNALTLFNLA here?
**A.** 1.26

**Q.** With TKALGVIQIMVGLMHIGFGIVLCLISFSFREVLGFN as the binder, how does the enrichment score read?
**A.** -0.732

**Q.** SGLTAGMLMTDAGRKLYVNTWIYGTLLGCLWVTIKA was tested. Which enrichment score did it give?
**A.** 0.997

**Q.** With PLMTRVVERSSSMTSTMTIGKFMLALAFFAIIIAYF as the binder, how does the enrichment score read?
**A.** -3.56

**Q.** How did the enrichment score turn out when HKYEGEPENAVLPLCFVVAVYFMTGPMGFYWRSSPS was run?
**A.** -0.0105

**Q.** With DGQHIPVLFSIFCGLLVAVSYHLSRQSSDPSVLFSF as the binder, how does the enrichment score read?
**A.** 2.52

**Q.** With MAEQTYSWAYSLVDSSQVSTFLISILLIVYGSFRSL as the binder, how does the enrichment score read?
**A.** 1.53

**Q.** Which enrichment score does the source give for RGACRIYNSTYLGRAFFGLKVALIFPVLVLLTVFIF here?
**A.** -1.71

**Q.** Which enrichment score does the source give for PDSPQEFLQKKATETILLLVSFFVVMYQMDLSLSSY here?
**A.** 1.47

**Q.** For VLGMSAVISSVAHYLGLGILAFIGSTEEDDRRLGFV, which enrichment score is on record?
**A.** 0.863

**Q.** How did the enrichment score turn out when LFLFIYPITLIGNLLIVLAICSDVRLHNPMYFLLAN was run?
**A.** -0.75

**Q.** With EANKYFFIESCIALFVSFIINVFVVSVFAEAFFGKT as the binder, how does the enrichment score read?
**A.** 3

**Q.** With MDTPRGIGTFVVWDYVVFAGMLVISAAIGIYYAFAG as the binder, how does the enrichment score read?
**A.** 1.02

**Q.** How did the enrichment score turn out when SVPYAIVGGILALLVFLIICVLVGMVWCSVRQKGSC was run?
**A.** -2.16

**Q.** PRVKTIARGLVGGLKNTLVHRLALIPVYPLRFSRRS was tested. Which enrichment score did it give?
**A.** -2.7

**Q.** With EAGLALPPTGYRCLECGDAFSLEKSLARHYDRRSMR as the binder, how does the enrichment score read?
**A.** 5.04

**Q.** How did the enrichment score turn out when KSSVQEILFPLFFLFWLILISMMHPNKKYEEVPNIE was run?
**A.** 2.25

**Q.** For QQIPDVSPTGRYTTLVPLLFILAVAAIKEIIEDIKR, which enrichment score is on record?
**A.** 0.534

**Q.** With ILQPWIVVNLVVALLVGLSWLFLSYRPGMDLSEELM as the binder, how does the enrichment score read?
**A.** 3.7

**Q.** For SSFLFSLLPFSLSFSPAPYFLFPISLSSLLSFFLPF, which enrichment score is on record?
**A.** -1.04

**Q.** LSQFVIHRSLCISTMQAVFSSVFYFASVPLYQGFLI was tested. Which enrichment score did it give?
**A.** 1.67

**Q.** With RLGTLKGPFRERIRQLMCPAEDLPQRNPAGPSAPAS as the binder, how does the enrichment score read?
**A.** -2.53
